This is an account of results in CN117327176A.

Amino acid sequences for entries named in this document (tags omitted). Residues count along the entry.
UniProt Q969D9, residues 29-159: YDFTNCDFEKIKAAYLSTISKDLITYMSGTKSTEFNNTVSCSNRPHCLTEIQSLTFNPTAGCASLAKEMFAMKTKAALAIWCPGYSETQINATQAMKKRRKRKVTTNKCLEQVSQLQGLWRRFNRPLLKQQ

B1: 4A1 VHH-hFc (Fc fusion, not shown: a dimerising Fc or GST)
chain (part 1 of 2): ESGGGSVQAGGSLRLSCATSRYTYNCMGWFRQSPGKEREQVAGIAMGVVTYYADSVKGRFTISQDNGKNTVDLQMDNLKPEDTAMYYCASGPPHYKCYSASGGRYNYWGQGTQVTVSS
chain (part 2 of 2): HHHHHH
B2: 1F9 VHH-hFc (Fc fusion, not shown: a dimerising Fc or GST)
chain (part 1 of 2): B1 chain (part 1 of 2) with S90A, P93A, A100P
chain (part 2 of 2): HHHHHH
B3: 1H5 VHH-hFc (Fc fusion, not shown: a dimerising Fc or GST)
chain (part 1 of 2): B1 chain (part 1 of 2) with S6L, A9P, S90A, P93A, A100P
chain (part 2 of 2): HHHHHH
B4: 1A6 VHH-hFc (Fc fusion, not shown: a dimerising Fc or GST)
chain (part 1 of 2): ESGGGSVQAGGSLRLSCATSRYTYGSSCMAWFRQSPGKEREQVAGIAMGVVTYYADSVKGRFTISQDNGKNTVDLQMDNLKPEDTAMYYCAAGPPHYKCYSVSGGRYNYWGQGTQVTVSS
chain (part 2 of 2): HHHHHH
B5: 1D1 VHH-hFc (Fc fusion, not shown: a dimerising Fc or GST)
chain (part 1 of 2): B4 chain (part 1 of 2) with A9V, Y22F, S27A, A30G, A92T, P95A, V102A, N108S, Y109D
chain (part 2 of 2): HHHHHH
B6: 1A7 VHH-hFc (Fc fusion, not shown: a dimerising Fc or GST)
chain (part 1 of 2): B4 chain (part 1 of 2) with S20P, S26T, A30G, K38Y, E39Q, P95A, V102A
chain (part 2 of 2): HHHHHH
B7: 4F3 VHH-hFc (Fc fusion, not shown: a dimerising Fc or GST)
chain (part 1 of 2): B4 chain (part 1 of 2) with A30G, G69N, A92S, V102A
chain (part 2 of 2): HHHHHH
B8: 214D11 VHH-hFc (Fc fusion, not shown: a dimerising Fc or GST)
chain (part 1 of 2): B4 chain (part 1 of 2) with Y22F, S27A, A30G, A92T, P95A, V102A, N108D, Y109A
chain (part 2 of 2): HHHHHH
B9: 27H4 VHH-hFc (Fc fusion, not shown: a dimerising Fc or GST)
chain (part 1 of 2): B4 chain (part 1 of 2) with Y22F, S27A, A30G, Q34H, S35A, A92T, P95A, V102P
chain (part 2 of 2): HHHHHH
B10: 2G5 VHH-hFc (Fc fusion, not shown: a dimerising Fc or GST)
chain (part 1 of 2): B4 chain (part 1 of 2) with Y22F, S27A, A30G, A92T, P95A, K98N, V102A
chain (part 2 of 2): HHHHHH
B11: 2D10 VHH-hFc (Fc fusion, not shown: a dimerising Fc or GST)
chain (part 1 of 2): B4 chain (part 1 of 2) with Y22F, S27A, A30G, E83D, A92T, P95A, V102A
chain (part 2 of 2): HHHHHH
B12: 4B2 VHH-hFc (Fc fusion, not shown: a dimerising Fc or GST)
chain (part 1 of 2): B4 chain (part 1 of 2) with S27A, A30G, P95A, K98L, V102A, N108T, Y109S
chain (part 2 of 2): HHHHHH
B13: 23G12 VHH-hFc (Fc fusion, not shown: a dimerising Fc or GST)
chain (part 1 of 2): B4 chain (part 1 of 2) with Y22F, S27A, A30G, A92T, P95A, V102A
chain (part 2 of 2): HHHHHH
B14: 21H6 VHH-hFc (Fc fusion, not shown: a dimerising Fc or GST)
chain (part 1 of 2): B4 chain (part 1 of 2) with Y22W, S26T, S27A, A30G, K59E, G69E, A92T, P95A, V102A
chain (part 2 of 2): HHHHHH
B15: 2H3 VHH-hFc (Fc fusion, not shown: a dimerising Fc or GST)
chain (part 1 of 2): ESGGGSVQAGGSLRLSCATSTSRFTYGSACMGWFRQSPGKEREQVAGIAMGVVTYYADSVKGRFTISQDNGKNTVDLQMDNLKPEDTAMYYCAAGPAHYKCYSASGGRYNIWGQGTQVTVSS
chain (part 2 of 2): HHHHHH
B16: 212C7 VHH-hFc (Fc fusion, not shown: a dimerising Fc or GST)
chain (part 1 of 2): B15 chain (part 1 of 2) with S6L, A9P, K100N, I111Y
chain (part 2 of 2): HHHHHH
B17: 1F3 VHH-hFc (Fc fusion, not shown: a dimerising Fc or GST)
chain (part 1 of 2): B15 chain (part 1 of 2) with K100N, I111Y
chain (part 2 of 2): HHHHHH
B18: 1B7 VHH-hFc (Fc fusion, not shown: a dimerising Fc or GST)
chain (part 1 of 2): ESGGGSVQAGGSLRLSCTTSGYTYSSNCIGWFRQAPGKEREEIATISRVGEITFYADSVKGRFTISQDNTETTVFLQMNSLKPEDTAVYYCAASPPTYGGCPTRSRDYDKWGQGTQVTVSS
chain (part 2 of 2): HHHHHH

Where a chain is given by its changes, count along the chain named. No constants are given. Whether binding was seen depends on the method and setting. Some entries that bind do so weakly or less than the wild type.

The target of the experiment is 人源TSLP蛋白 (Thymic stromal lymphopoietin) (human) (UniProt Q969D9). Briefly: ELISA, coated TSLP 1 μg/mL, VHH-hFc titrated, HRP goat anti-hIgG.
Turning to B1, the binding result is recorded as “binds”.
Turning to B2, the binding result is reported as “binds”.
Regarding B3, the binding result is recorded as “binds”.
For the molecule B4, the binding result is listed as “binds”.
In the case of B5, the binding result was “binds”.
Then B6, with “binds”; and B7, with “binds”; and B8, with “binds”.
Then B9, with “binds”; and B10, with “binds”; and B11, with “binds”.
The same measure for B12: “binds”; for B13: “binds”; for B14: “binds”.
Regarding B15, the binding result is listed as “binds”.
For B16, the binding entry is reported as “binds”.
For B17, the binding result was “binds”.
B18: the binding entry was “binds”.
